Data as given in PubChem BioAssay AID1224828 (NIAID, 2016)

Screen: 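Find genes required for NF-kappaB p65 moving into the nucleus after LPS in mouse macrophages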 (primary screen)
Cells: mouse RAW264.7 G9 macrophage reporter cells (GFP-p65, Tnf promoter-mCherry)
Knock-down reagent: siRNA pool against mouse genes, 100 nM
Time to read-out: 2 days siRNA transfection, then 40 min LPS before fixation
Treatment: LPS (Salmonella minnesota R595) at 10 ng/ml
Measured: 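Imaged p65 nuclear translocation ratio, normalised to the plate median, converted to robust z-scores and averaged across two replicates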
Scale: p65 translocation robust z-score: higher = more nuclear NF-kappaB p65 after LPS than the plate median; nuclear/cytoplasmic p65 ratio: higher = more nuclear NF-kappaB p65
Rule for the call: 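Active if robust z is above 3.3 (negative regulators) or below -1.56, the Tlr4 control median (positive regulators); activity score 50 or more; control wells not called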
Meaning of the calls: active = hit (p65 shift raised or lowered); inactive = no clear change
Shown is one part, drawn at random, of about 17,000 reagents tested. 762 of them (4.5%) were called active. 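Active calls include both raised and lowered p65 entry, mostly lowered; wells with fewer than 50 cells lack a z-score.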 Raw values are not corrected between plates. A number with no mark means an inactive call.

Gene	PubChem SID	p65 translocation robust z-score	nuclear/cytoplasmic p65 ratio, rep 1	nuclear/cytoplasmic p65 ratio, rep 2	low cell count flag
Trpc1	SID315469835	-0.71	1.5	1.33	enough cells to score
Podn	SID315479632		1.19	0.961	fewer than 50 cells per well; well left out of scoring
Capn10	SID315470189	-0.79	1.5	1.49	enough cells to score
Vmn1r70	SID315477337	-0.57	1.45	1.49	enough cells to score
Cftr	SID315465947	-0.43	1.35	1.32	enough cells to score
Tnr	SID315469789	-0.75	1.5	1.33	enough cells to score
Nol12	SID315476114	-0.49	1.47	1.75	enough cells to score
Ccn3	SID315468215	1.17	1.41	1.55	enough cells to score
Dhrs2	SID315474233		1.16	1.37	fewer than 50 cells per well; well left out of scoring
Rdh1	SID315476625	-1.59 (active)	1.17	1.07	enough cells to score
Mcmdc2	SID315479518	0.4	1.4	1.53	enough cells to score
Acer2	SID315478777	0.23	1.56	1.88	enough cells to score
Acer2	SID315478778	0.41	1.45	1.47	enough cells to score
Slc25a15	SID315468349	-0.84	1.44	1.36	enough cells to score
Sar1a	SID315469097		1.47	1.18	fewer than 50 cells per well; well left out of scoring
Serpina11	SID315481756	-1.21	1.32	1.12	enough cells to score
Ccn2	SID315466695	-0.56	1.41	1.3	enough cells to score
Dctn2	SID315473858	0.56	1.53	1.45	enough cells to score
Efcc1	SID315471885	-0.37	1.28	1.48	enough cells to score
Cfap52	SID315474353		1.4	1.12	fewer than 50 cells per well; well left out of scoring
Gtf2a1l	SID315474340	-0.87	1.26	1.28	enough cells to score
Mrpl30	SID315476635	-0.37	1.9	1.39	enough cells to score
Sh3bp2	SID315470300	-0.95	1.45	1.38	enough cells to score
Tfpi2	SID315469685	-0.29	1.49	1.46	enough cells to score
Wnt3	SID315470043	-0.83	1.39	1.49	enough cells to score
Lypd11	SID315477633	-0.03	1.64	1.6	enough cells to score
Nt5dc3	SID315476372	1.06	1.52	1.72	enough cells to score
Gja5	SID315466907	-0.76	1.38	1.23	enough cells to score
Zfp445	SID315479287	-1.67 (active)	1.23	1.4	enough cells to score
Sema3d	SID315476707	-0.07	1.44	1.21	enough cells to score
Caly	SID315473570	0.2	1.65	1.27	enough cells to score
Comp	SID315466072	2.33	1.93	1.56	enough cells to score

A portion taken from the entries so far:
Gene	PubChem SID	p65 translocation robust z-score	nuclear/cytoplasmic p65 ratio, rep 1	nuclear/cytoplasmic p65 ratio, rep 2	low cell count flag
Nol12	SID315476114	-0.49	1.47	1.75	enough cells to score
Ccn3	SID315468215	1.17	1.41	1.55	enough cells to score
Dhrs2	SID315474233		1.16	1.37	fewer than 50 cells per well; well left out of scoring
Rdh1	SID315476625	-1.59 (active)	1.17	1.07	enough cells to score
Mcmdc2	SID315479518	0.4	1.4	1.53	enough cells to score
Acer2	SID315478777	0.23	1.56	1.88	enough cells to score
Acer2	SID315478778	0.41	1.45	1.47	enough cells to score
Slc25a15	SID315468349	-0.84	1.44	1.36	enough cells to score
Sar1a	SID315469097		1.47	1.18	fewer than 50 cells per well; well left out of scoring
Serpina11	SID315481756	-1.21	1.32	1.12	enough cells to score

Continued:
Gene	PubChem SID	p65 translocation robust z-score	nuclear/cytoplasmic p65 ratio, rep 1	nuclear/cytoplasmic p65 ratio, rep 2	low cell count flag
Sntg1	SID315474185	0.5	1.54	1.29	enough cells to score
Med15	SID315476039	-0.86	1.31	1.16	enough cells to score
Shld2	SID315475181	1.1	1.61	1.94	enough cells to score
Tcstv2a	SID315479302	1.01	1.79	1.8	enough cells to score
Tmprss12	SID315475065		1.29	1.47	fewer than 50 cells per well; well left out of scoring
Ndufv3	SID315475566	-0.38	1.42	1.46	enough cells to score
Cep57l1	SID315476369		1.92	1.61	fewer than 50 cells per well; well left out of scoring
Smim14	SID315473565	-0.97	1.34	1.38	enough cells to score
Lrp4	SID315478625	-0.73	1.65	1.4	enough cells to score
Pear1	SID315474690		1.73	1.17	fewer than 50 cells per well; well left out of scoring
BC028528	SID315478722	-0.32	1.37	1.51	enough cells to score
Suco	SID315478512	0.94	1.7	1.88	enough cells to score
Ccdc159	SID315472846	0.61	1.56	1.46	enough cells to score
Htr7	SID315467348	-0.15	1.47	1.58	enough cells to score
Dtx4	SID315477485	-1.16	1.34	1.19	enough cells to score
Krt1	SID315467694	-0.11	1.4	1.42	enough cells to score
Ahr	SID315465358	1.58	1.85	1.87	enough cells to score
Cdx2	SID315465925	-0.36	1.47	1.33	enough cells to score
Gpr137	SID315476583	-0.06	1.47	1.6	enough cells to score
Nkain4	SID315471891	-0.4	1.33	1.52	enough cells to score
Asz1	SID315474833		1.58	1.48	fewer than 50 cells per well; well left out of scoring
Or5aq1	SID315480413	-2.52 (active)	1.2	1.27	enough cells to score
Xcl1	SID315467762	0.02	1.59	1.43	enough cells to score
C1galt1	SID315476052	1.16	1.62	1.65	enough cells to score
Nadk	SID315477392	0.1	1.71	1.4	enough cells to score
Lmbrd1	SID315473527		1.07	0.993	fewer than 50 cells per well; well left out of scoring
4930432E11Rik	SID315479717	-0.26	1.23	1.33	enough cells to score
